Measurements: PubChem BioAssay AID540256 (National Center for Advancing Translational Sciences (NCATS), 2011)
Screen size: about 300,000 compounds; about 3,700 (1.2%) were called active. This list was built around the results that the source calls inconclusive (neither active nor inactive); the mix of calls is not that of the screen. Calls follow the shape of the full dose curve; tested in HEK293 cells. Potencies of inconclusive entries are doubtful fits and often do not repeat.

Experiment: qHTS for Inhibitors of binding or entry into cells for Lassa Virus; also: nearly all actives have a fitted effect of over 50% in size
Conditions: Lassa virus pseudotype entry inhibition, cell reporter; series mostly up to 37.9 µM
Potency is read from the fitted curve at half-maximal effect.

Structure (SMILES)	Potency
COc1ccc(C(=O)Nc2nc(C)c(C)s2)cc1OC	inactive
NC(=O)CSc1nc(-c2ccccc2Cl)ns1	inconclusive: 9.2 µM [activator, partial curve, poor fit]
Cn1cnnc1SCc1ccc(C(=O)N/N=C(\CCC(=O)O)c2ccc(C(C)(C)C)cc2)cc1	inactive
O=C(NC(=S)Nc1cccc(CO)c1)c1ccc(-c2ccccc2)cc1	inconclusive: 1.26 µM [activator, single point]
CC1CCCN(C(=O)c2ccc3c(=O)n(C4CCCC4)c(=S)[nH]c3c2)C1 (centres undefined)	inconclusive: 14.1 µM [inhibitor, single point]
Cc1ccc(Cl)cc1-n1ncc2c(NNC(=O)c3ccco3)ncnc21	inconclusive: 6.31 µM [inhibitor, single point]
CCOC(=O)C1=C(C)NC(C)=C(C(=O)OCC)C1C(=O)OCC(=O)N1CCC(C)CC1	inconclusive: 3.98 µM [inhibitor, single point]
COc1cccc(CC2(CO)CCCN(Cc3ccc(CO)o3)C2)c1 (centres undefined)	inactive
Cc1ccc(S(=O)(=O)N2CCN(C(C)C(=O)Nc3ccccc3-c3ccccc3)CC2)cc1 (centres undefined)	inconclusive: 35.5 µM [inhibitor, single point]
O=C(Nc1ccccc1)NC1CCCCNC1=O (centres undefined)	inconclusive: 35.5 µM [inhibitor, single point]
Cc1cccc(C)c1OCC(=O)N/N=C/c1ccc2c(c1)OCO2	inconclusive: 17.8 µM [inhibitor, partial curve, poor fit]
CCOc1cc(CNC(=O)c2ccc(C)c(NC(=O)c3nsc4ccccc34)c2)ccc1OC	inconclusive: 7.08 µM [inhibitor, single point]
CC1CCCCC1NC(=O)c1ccc(NS(=O)(=O)c2ccc3[nH]c(=O)[nH]c3c2)cc1 (centres undefined)	inconclusive: 6.31 µM [inhibitor, single point]
Cc1ccccc1Nc1nc(N)nc(CSc2nnnn2-c2ccccc2)n1	inconclusive: 29.1 µM [inhibitor, single point]
CCOC(=O)c1c(NC(=O)CN2CCCCC2)sc2c1CCC(C=O)=C2Cl	inactive
COc1ccc(CN(C)C(=O)C2CCN(C(=O)Nc3ccccc3)CC2)cc1	inactive
C=C(C)CN=CC1(C)CCC(C)=CO1 (centres undefined)	inconclusive: 3.16 µM [inhibitor, single point]
CC(C)OC(=O)c1sc2nc(-c3ccccc3)ccc2c1N	inconclusive: 9.2 µM [inhibitor, partial curve, poor fit]
COc1ccccc1CNC(=O)Cc1csc2nc(-c3ccc(Cl)cc3)cn12	inconclusive: 11.2 µM [activator, partial curve]

An excerpt of the results above, as a working copy:
Structure (SMILES)	Potency
O=C(NC(=S)Nc1cccc(CO)c1)c1ccc(-c2ccccc2)cc1	inconclusive: 1.26 µM [activator, single point]
CC1CCCN(C(=O)c2ccc3c(=O)n(C4CCCC4)c(=S)[nH]c3c2)C1 (centres undefined)	inconclusive: 14.1 µM [inhibitor, single point]
